Some of the results follow.
Compound: CC1Cc2ccccc2N1C(=O)C1CCCN(C1)C(=O)CCl (mixture of isomers) [TRIM25 ligand 11 (diastereomer mixture)]
Test: probe-labelled cysteine peptide fold change vs DMSO (competition) (log2 fold change); higher = less target engagement (more negative = stronger competition)
Details: THP-1, incubation time: 4 h
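Further: competitive chemoproteomic profiling in live THP-1 cells with an iodoacetamide desthiobiotin (IA-DTB) probe, comparing probe-labelled peptide intensities in compound-treated cells against DMSO-treated controls.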

Amino acid sequences for entries named in this document (tags omitted). A change or cut given only in a name is not applied to a line headed by its entry.
UniProt P08559, whole entry, looked up: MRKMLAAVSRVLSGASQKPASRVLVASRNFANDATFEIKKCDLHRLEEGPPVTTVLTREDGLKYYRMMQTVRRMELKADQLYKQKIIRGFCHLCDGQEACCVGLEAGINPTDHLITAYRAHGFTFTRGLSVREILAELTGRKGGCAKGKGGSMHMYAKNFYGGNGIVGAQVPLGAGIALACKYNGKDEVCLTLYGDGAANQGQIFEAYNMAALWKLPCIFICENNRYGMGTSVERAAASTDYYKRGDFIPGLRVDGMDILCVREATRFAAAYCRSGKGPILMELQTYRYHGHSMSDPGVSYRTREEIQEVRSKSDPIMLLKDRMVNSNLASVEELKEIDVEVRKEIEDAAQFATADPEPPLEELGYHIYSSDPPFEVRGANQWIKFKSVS
UniProt Q9NR12, whole entry, looked up: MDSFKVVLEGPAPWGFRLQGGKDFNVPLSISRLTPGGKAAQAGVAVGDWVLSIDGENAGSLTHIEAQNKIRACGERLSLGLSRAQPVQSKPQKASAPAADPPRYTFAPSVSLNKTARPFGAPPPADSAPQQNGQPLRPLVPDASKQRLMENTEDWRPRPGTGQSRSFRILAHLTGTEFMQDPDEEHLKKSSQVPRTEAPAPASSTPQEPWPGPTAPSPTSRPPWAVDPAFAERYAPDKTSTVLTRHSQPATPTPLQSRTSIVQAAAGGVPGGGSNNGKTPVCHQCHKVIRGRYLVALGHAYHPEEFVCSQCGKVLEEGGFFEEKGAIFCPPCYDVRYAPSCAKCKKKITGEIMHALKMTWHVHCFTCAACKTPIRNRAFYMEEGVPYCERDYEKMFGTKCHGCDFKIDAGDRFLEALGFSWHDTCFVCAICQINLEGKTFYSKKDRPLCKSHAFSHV
UniProt Q6ZW49, whole entry, looked up: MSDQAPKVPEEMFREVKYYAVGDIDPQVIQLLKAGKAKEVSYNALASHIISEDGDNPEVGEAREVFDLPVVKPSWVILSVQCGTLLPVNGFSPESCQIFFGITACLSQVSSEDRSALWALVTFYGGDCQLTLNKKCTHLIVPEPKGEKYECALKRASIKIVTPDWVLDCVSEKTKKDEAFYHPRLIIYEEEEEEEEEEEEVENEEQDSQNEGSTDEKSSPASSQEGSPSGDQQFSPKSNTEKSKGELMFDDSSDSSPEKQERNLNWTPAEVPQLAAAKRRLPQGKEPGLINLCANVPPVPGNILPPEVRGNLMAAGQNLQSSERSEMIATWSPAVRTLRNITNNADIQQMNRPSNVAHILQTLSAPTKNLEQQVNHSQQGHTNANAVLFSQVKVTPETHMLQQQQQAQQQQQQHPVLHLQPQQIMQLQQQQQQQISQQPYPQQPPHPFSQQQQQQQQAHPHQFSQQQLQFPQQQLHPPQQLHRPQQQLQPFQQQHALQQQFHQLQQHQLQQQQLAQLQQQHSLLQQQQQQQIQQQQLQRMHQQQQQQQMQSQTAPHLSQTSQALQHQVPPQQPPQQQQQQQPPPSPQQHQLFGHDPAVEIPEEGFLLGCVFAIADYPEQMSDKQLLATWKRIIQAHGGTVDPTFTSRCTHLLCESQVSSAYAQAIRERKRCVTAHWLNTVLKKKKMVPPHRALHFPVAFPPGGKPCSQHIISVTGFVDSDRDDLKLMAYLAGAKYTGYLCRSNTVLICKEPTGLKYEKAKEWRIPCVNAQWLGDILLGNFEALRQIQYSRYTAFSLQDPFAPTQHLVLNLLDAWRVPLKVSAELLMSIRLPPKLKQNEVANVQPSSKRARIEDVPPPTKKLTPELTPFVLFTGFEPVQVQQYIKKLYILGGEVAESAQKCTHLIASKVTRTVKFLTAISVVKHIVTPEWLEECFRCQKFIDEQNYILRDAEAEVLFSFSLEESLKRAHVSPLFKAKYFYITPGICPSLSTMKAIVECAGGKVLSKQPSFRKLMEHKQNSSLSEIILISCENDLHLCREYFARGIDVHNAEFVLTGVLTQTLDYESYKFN
UniProt Q14554: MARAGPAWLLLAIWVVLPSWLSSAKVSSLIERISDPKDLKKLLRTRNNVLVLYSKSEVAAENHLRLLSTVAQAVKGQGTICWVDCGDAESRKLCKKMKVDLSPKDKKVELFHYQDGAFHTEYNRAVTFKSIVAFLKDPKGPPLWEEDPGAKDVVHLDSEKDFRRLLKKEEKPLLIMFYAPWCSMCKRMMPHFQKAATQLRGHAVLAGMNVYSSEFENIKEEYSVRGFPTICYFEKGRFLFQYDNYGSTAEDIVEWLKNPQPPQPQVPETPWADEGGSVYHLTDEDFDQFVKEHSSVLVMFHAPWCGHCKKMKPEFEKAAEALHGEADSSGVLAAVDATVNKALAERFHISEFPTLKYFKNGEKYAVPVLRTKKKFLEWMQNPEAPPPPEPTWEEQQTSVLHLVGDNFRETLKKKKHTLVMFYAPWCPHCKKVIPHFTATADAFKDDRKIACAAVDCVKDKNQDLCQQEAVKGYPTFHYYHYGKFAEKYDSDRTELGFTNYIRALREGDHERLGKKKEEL
UniProt P49585: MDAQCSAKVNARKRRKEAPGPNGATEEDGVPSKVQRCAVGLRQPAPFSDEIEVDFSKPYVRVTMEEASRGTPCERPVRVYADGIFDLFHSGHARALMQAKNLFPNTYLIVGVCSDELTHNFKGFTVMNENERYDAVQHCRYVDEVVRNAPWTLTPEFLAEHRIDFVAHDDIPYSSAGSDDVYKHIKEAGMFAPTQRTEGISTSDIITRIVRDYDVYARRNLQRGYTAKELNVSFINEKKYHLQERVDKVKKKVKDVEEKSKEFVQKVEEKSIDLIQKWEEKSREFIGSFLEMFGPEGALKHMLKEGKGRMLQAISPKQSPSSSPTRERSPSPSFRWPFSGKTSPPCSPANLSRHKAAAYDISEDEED
UniProt O00151: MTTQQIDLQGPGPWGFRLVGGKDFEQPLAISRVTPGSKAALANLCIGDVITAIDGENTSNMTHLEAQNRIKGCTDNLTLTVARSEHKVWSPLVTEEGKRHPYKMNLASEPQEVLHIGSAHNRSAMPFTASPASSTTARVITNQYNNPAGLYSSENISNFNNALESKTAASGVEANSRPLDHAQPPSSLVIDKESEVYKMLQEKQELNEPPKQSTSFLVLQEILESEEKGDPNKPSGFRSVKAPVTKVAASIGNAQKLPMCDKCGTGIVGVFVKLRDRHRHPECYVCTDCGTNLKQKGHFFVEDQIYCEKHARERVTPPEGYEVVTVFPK
UniProt Q15365, whole entry, looked up: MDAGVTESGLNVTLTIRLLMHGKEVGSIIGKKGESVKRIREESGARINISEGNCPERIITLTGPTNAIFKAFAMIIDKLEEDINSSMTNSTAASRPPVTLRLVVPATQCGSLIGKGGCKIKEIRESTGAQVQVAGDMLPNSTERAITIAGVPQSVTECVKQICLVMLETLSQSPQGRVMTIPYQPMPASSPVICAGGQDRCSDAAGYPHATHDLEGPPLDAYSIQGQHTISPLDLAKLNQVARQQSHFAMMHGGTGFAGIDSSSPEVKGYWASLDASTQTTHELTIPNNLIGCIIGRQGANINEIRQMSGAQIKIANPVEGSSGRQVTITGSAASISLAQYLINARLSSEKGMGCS
UniProt Q6P996: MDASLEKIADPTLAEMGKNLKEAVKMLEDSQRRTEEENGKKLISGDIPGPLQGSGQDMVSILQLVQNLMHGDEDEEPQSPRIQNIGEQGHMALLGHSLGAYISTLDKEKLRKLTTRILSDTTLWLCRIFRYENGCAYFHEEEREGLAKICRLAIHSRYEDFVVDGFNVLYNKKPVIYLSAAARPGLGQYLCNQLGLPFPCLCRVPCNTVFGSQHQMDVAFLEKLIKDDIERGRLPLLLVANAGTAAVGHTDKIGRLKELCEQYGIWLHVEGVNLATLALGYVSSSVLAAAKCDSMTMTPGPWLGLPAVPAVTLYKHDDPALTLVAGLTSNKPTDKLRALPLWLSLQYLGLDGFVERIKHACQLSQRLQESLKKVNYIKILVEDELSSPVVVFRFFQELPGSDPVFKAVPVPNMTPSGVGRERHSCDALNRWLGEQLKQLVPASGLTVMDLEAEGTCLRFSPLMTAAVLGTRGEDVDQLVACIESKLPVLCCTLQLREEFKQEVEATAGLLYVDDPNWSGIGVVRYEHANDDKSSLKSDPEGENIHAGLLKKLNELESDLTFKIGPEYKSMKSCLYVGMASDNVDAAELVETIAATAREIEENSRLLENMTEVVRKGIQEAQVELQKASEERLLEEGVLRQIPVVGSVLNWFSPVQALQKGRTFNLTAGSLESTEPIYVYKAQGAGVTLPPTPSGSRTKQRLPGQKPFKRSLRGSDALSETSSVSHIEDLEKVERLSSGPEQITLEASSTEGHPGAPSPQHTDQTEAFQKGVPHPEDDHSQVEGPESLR
UniProt Q6L8Q7: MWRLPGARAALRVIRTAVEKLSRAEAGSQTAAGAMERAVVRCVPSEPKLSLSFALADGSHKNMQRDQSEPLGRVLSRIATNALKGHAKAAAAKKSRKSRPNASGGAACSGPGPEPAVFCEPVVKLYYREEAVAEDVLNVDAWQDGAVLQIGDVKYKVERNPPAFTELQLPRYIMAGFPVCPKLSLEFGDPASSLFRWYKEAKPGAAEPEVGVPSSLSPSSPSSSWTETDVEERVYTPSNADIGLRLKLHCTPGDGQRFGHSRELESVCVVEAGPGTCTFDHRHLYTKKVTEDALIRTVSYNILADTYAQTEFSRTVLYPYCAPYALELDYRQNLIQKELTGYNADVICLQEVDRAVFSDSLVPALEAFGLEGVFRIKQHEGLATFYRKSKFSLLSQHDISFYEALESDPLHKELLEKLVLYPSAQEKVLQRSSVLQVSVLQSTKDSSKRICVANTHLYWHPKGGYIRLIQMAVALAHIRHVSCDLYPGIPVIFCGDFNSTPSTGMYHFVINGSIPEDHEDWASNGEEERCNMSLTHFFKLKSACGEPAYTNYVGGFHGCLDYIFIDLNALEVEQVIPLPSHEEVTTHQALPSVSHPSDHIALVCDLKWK
UniProt Q99447: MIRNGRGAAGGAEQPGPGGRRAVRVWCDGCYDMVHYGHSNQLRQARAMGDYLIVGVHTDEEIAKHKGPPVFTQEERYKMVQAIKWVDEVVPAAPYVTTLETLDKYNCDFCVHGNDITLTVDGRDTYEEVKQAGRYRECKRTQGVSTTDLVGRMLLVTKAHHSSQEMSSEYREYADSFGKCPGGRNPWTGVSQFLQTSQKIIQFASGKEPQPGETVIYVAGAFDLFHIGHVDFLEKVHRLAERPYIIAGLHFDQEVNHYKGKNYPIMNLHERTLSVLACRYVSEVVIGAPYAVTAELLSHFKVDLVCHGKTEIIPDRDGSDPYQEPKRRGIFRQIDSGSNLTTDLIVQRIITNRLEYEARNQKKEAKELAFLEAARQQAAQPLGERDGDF
UniProt P09874, whole entry, looked up: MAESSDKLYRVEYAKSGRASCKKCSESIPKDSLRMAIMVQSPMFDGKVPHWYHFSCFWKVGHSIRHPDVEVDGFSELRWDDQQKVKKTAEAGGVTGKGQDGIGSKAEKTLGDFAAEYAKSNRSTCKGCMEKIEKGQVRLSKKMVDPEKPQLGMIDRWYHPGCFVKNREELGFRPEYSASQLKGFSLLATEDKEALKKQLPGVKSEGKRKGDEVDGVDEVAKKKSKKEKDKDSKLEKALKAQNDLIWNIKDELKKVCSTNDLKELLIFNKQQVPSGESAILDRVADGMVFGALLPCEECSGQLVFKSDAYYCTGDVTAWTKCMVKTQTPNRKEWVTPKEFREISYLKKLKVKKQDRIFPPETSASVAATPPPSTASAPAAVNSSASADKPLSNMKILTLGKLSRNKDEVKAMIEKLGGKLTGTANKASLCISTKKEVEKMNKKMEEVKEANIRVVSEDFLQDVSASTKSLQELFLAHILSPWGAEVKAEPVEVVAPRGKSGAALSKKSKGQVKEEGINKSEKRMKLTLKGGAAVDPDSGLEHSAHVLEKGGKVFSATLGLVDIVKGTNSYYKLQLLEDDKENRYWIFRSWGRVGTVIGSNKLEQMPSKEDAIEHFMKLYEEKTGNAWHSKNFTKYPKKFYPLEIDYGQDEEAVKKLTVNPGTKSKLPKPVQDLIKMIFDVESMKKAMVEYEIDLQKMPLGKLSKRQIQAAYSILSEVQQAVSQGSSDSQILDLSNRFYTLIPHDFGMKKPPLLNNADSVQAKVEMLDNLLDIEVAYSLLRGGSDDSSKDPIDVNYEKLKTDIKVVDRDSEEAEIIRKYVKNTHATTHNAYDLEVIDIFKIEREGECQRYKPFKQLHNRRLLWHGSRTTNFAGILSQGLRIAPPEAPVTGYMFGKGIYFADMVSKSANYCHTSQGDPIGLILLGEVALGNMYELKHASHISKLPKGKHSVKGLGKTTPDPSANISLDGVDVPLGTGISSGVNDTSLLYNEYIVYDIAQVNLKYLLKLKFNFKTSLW
UniProt Q9HBH1: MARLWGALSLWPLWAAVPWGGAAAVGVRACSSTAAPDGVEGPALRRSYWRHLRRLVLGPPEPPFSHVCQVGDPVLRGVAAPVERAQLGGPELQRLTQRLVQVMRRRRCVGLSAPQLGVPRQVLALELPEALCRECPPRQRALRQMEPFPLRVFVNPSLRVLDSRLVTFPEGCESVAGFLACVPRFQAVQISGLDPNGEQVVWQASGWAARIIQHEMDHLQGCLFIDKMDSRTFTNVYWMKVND

Target | probe-labelled cysteine peptide fold change (10 µM) | probe-labelled cysteine peptide fold change (50 µM)
PBRM1_Q86U86_50_LSNLPTVDPIAVCHELYNTIR (UniProt Q86U86) | -0.12 | -0.0725
PDHA1_P08559_261_RGDFIPGLRVDGMDILCVR (UniProt P08559) | -0.514 | -0.188
PDS5A_Q29RF7_486_CLYYLYASLDPNAVK (UniProt Q29RF7) | 0.0833 | 0.0765
PDLIM7_Q9NR12_341_YAPSCAK (UniProt Q9NR12) | 0.0325 | -0.0479
PAXIP1_Q6ZW49_671_CVTAHWLNTVLK (UniProt Q6ZW49) | -0.0141 | 0.132
PDIA5_Q14554_81_GQGTICWVDCGDAESR (UniProt Q14554) | -0.0225 | -0.0769
PCYT1A_P49585_37_CAVGLR (UniProt P49585) | -0.0464 | -0.0516
PCM1_Q15154_1872_PCYLNILEDEQPLNSAAHK (UniProt Q15154) | 0.0621 | -0.173
PBRM1_Q86U86_1233_CAVLSFK (UniProt Q86U86) | 0.0824 | -0.00691
PCK2_Q16822_417_EPCAHPNSR (UniProt Q16822) | 0.218 | 0.0236
PDIA5_Q14554_451_IACAAVDCVK (UniProt Q14554) | -0.156 | -0.14
PDLIM1_O00151_283+286+289_HRHPECYVCTDCGTNLK (UniProt O00151) | -0.034 | 0.00381
PCBP1_Q15365_109_LVVPATQCGSLIGK (UniProt Q15365) | -0.0226 | 0.00485
PDXDC1_Q6P996_573_SCLYVGMASDNVDAAELVETIAATAR (UniProt Q6P996) | 0.174 | -0.106
PDE12_Q6L8Q7_348_ELTGYNADVICLQEVDR (UniProt Q6L8Q7) | 0.000438 | 0.0235
PDE4DIP_Q5VU43_375_QCVQFVEAAAHESEQQK (UniProt Q5VU43) | -0.0595 | -0.197
PCCB_P05166_291_ECHDPSDRLVPELDTIVPLESTK (UniProt P05166) | -0.303 | -0.127
PCYT2_Q99447_110_YNCDFCVHGNDITLTVDGR (UniProt Q99447) | -0.0584 | 0.192
PARP1_P09874_845_IEREGECQR (UniProt P09874) | -0.00747 | 0.129
PDHA1_P08559_273_FAAAYCR (UniProt P08559) | 0.138 | 0.012
PCBP1_Q15365_194_VMTIPYQPMPASSPVICAGGQDR (UniProt Q15365) | 0.048 | 0.139
PDS5A_Q29RF7_1079+1084_LYTVCDVALCVINSK (UniProt Q29RF7) | -0.125 | 0.0661
PDLIM5_Q96HC4_420_TPMCAHCNQVIR (UniProt Q96HC4) | -0.109 | -0.143
PCTP_Q9UKL6_93_ELYEQECNGETVVYWEVK (UniProt Q9UKL6) | -0.0461 | -0.196
PCBP1_Q15365_293_GYWASLDASTQTTHELTIPNNLIGCIIGR (UniProt Q15365) | -0.0964 | -0.174
PDLIM7_Q9NR12_285_TPVCHQCHK (UniProt Q9NR12) | -0.0165 | 0.02

Target | probe-labelled cysteine peptide fold change (10 µM) | probe-labelled cysteine peptide fold change (50 µM)
PDLIM7_Q9NR12_364_MTWHVHCFTCAACK (UniProt Q9NR12) | 0.0335 | -0.00467
PDXDC1_Q6P996_491_LPVLCCTLQLR (UniProt Q6P996) | 0.0841 | 0.128
PDS5A_Q29RF7_430_YCLHGEAGK (UniProt Q29RF7) | 0.0368 | 0.0881
PDCD2L_Q9BRP1_80_LLHVFACACPGCSTGGAR (UniProt Q9BRP1) | 0.0401 | -0.0785
PDF_Q9HBH1_172_LVTFPEGCESVAGFLACVPR (UniProt Q9HBH1) | 0.391 | 0.208
PARP1_P09874_429_ASLCISTK (UniProt P09874) | -0.00943 | 0.0281
PARP1_P09874_56_VPHWYHFSCFWK (UniProt P09874) | 0.0175 | -0.178
PARVG_Q9HBI0_314_VLYGLFCK (UniProt Q9HBI0) | -0.204 | 0.146
PDIA3_P30101_57+60_ISDTGSAGLMLVEFFAPWCGHCK (UniProt P30101) | -0.212 | -0.179
PARS2_Q7L3T8_68_SDDLTCK (UniProt Q7L3T8) | -0.167 | -0.0773
PCID2_Q5JVF3_68_CTYAVGNHDFIEAYK (UniProt Q5JVF3) | 0.186 | 0.315
PCBP2_Q15366-2_302_GYWAGLDASAQTTSHELTIPNDLIGCIIGR (UniProt Q15366) | -0.105 | -0.0493
PCYT1A_P49585_139_GFTVMNENERYDAVQHCR (UniProt P49585) | -0.365 | -0.217
PCBP1_Q15365_158_AITIAGVPQSVTECVK (UniProt Q15365) | -0.266 | -0.0471
PDIA6_Q15084_58_EVIQSDSLWLVEFYAPWCGHCQR (UniProt Q15084) | -0.159 | -0.16
PARP4_Q9UKK3_182_DCPFLISSHFLLDDGMETR (UniProt Q9UKK3) | 0.0239 | -0.0284
PCGF5_Q86SE9_42+53_TCIVQHFEDSNDCPR (UniProt Q86SE9) | 0.0601 | -0.0814
PDLIM1_O00151_283_HPECYVCTDCGTNLK (UniProt O00151) | 0.0453 | -0.0363
PCYT2_Q99447_306_VDLVCHGK (UniProt Q99447) | 0.116 | 0.229
PDS5A_Q29RF7_14_PATALCGVVSADGK (UniProt Q29RF7) | -0.00487 | -0.069
PDCD11_Q14690_694_VLCLSQSEGR (UniProt Q14690) | -0.0798 | 0.156
PDS5B_Q9NTI5_732_YAIHCIHAIFSSK (UniProt Q9NTI5) | -0.00231 | 0.0228
PDLIM1_O00151_73_GCTDNLTLTVAR (UniProt O00151) | -0.0386 | -0.103
PCYT1A_P49585_113_NLFPNTYLIVGVCSDELTHNFK (UniProt P49585) | -0.118 | -0.0946
PCIF1_Q9H4Z3_29_EEASLLSHSPGTSNQSQPCSPK (UniProt Q9H4Z3) | -0.0152 | -0.357
PBRM1_Q86U86_450_NQEYETLDHLECDLNLMFENAK (UniProt Q86U86) | 7.74e-06 | -0.0433

Target | probe-labelled cysteine peptide fold change (10 µM) | probe-labelled cysteine peptide fold change (50 µM)
PDHB_P11177_161+169_GPNGASAGVAAQHSQCFAAWYGHCPGLK (UniProt P11177) | 0.0122 | -0.0132
PCM1_Q15154_1867_NDQNNCPVK (UniProt Q15154) | -0.0454 | -0.0479
PDCD11_Q14690_510_VLLCDPEAK (UniProt Q14690) | -0.0514 | -0.00699
PDHA1_P08559_261_GDFIPGLRVDGMDILCVR (UniProt P08559) | -0.504 | -0.121
PDF_Q9HBH1_132_QVLALELPEALCR (UniProt Q9HBH1) | -0.041 | -0.0973
PDS5A_Q29RF7_532_QPTSEANCSAMFGK (UniProt Q29RF7) | -0.0654 | -0.298
PDCD11_Q14690_1754_ALECLPSK (UniProt Q14690) | -0.0211 | 0.0845
PDIA5_Q14554_305_EHSSVLVMFHAPWCGHCK (UniProt Q14554) | 0.118 | -0.222
PCYOX1_Q9UHG3_462_LYYLNGIECAASAMEMSAIAAHNAALLAYHR (UniProt Q9UHG3) | 0.108 | 0.171
PARP4_Q9UKK3_45_FSFSLNPQCTHIILDNADVLSQYQLNSIQK (UniProt Q9UKK3) | -0.502 | -0.13
PDCD11_Q14690_361_LSCQNLGAVLDDVPVQGFFKK (UniProt Q14690) | -0.419 | -0.368
PAXIP1_Q6ZW49_1029_QNSSLSEIILISCENDLHLCR (UniProt Q6ZW49) | 0.0632 | 0.0876
PARP1_P09874_298_VADGMVFGALLPCEECSGQLVFK (UniProt P09874) | -0.104 | 0.156
PAXIP1_Q6ZW49_997_AIVECAGGK (UniProt Q6ZW49) | -0.0141 | -0.109
PDLIM7_Q9NR12_282+285_TPVCHQCHK (UniProt Q9NR12) | 0.0973 | 0.000168
PDE3B_Q13370_1059_IFCQLMHHLTENHK (UniProt Q13370) | -0.105 | -0.231
PDE12_Q6L8Q7_180_YIMAGFPVCPK (UniProt Q6L8Q7) | -0.131 | -0.214
PDLIM7_Q9NR12_388_AFYMEEGVPYCER (UniProt Q9NR12) | 0.0115 | 0.0577
PDE12_Q6L8Q7_268+277_ELESVCVVEAGPGTCTFDHR (UniProt Q6L8Q7) | 0.152 | -0.295
PDLIM7_Q9NR12_308+311_YLVALGHAYHPEEFVCSQCGK (UniProt Q9NR12) | 0.00692 | 0.0692
PDIA3_P30101_60_ISDTGSAGLMLVEFFAPWCGHCK (UniProt P30101) | -0.0971 | -0.283
PCGF5_Q86SE9_42_TCIVQHFEDSNDCPR (UniProt Q86SE9) | 0.0292 | -0.0616
PBK_Q96KB5_22_SVLCSTPTINIPASPFMQK (UniProt Q96KB5) | -0.0772 | -0.13
PDCD11_Q14690_81_EKFEILSVESLCEGMR (UniProt Q14690) | -0.174 | -0.175
PAXX_Q9BUH6_9_MDPLSPPLCTLPPGPEPPR (UniProt Q9BUH6) | -0.538 | 0.177
PDLIM1_O00151_263_CGTGIVGVFVK (UniProt O00151) | -0.15 | -0.156

Source: the supplement of paper PMC12067093, “Discovery and optimisation of a covalent ligand for TRIM25 and its application to targeted protein ubiquitination” (Chemical Science, 2025)
